Measurements taken from patent publication US9102678B2, “Compounds and methods for inhibiting mitotic progression” (Millennium Pharmaceuticals, Inc., priority 2004, dated 2015).
Some entries share one result that the patent states for a list of compounds.

Sequences of proteins named here, by UniProt entry; tags and fusion partners are left off. A change or cut given only in a name is not applied to a line headed by its entry.
UniProt P97477: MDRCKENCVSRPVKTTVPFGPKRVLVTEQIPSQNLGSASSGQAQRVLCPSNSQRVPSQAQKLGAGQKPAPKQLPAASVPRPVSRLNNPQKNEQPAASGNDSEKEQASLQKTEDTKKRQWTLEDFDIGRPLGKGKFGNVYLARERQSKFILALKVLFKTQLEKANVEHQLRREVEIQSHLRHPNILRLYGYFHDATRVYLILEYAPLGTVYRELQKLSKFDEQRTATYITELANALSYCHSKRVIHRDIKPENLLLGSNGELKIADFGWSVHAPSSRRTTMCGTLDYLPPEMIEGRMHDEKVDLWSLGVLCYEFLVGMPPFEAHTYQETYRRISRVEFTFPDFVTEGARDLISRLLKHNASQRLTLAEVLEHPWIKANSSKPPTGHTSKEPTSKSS

Target: T1, recombinant murine Aurora A enzyme (Mus musculus, UniProt P97477)
T1 construct: hexahistidine (His6) (N); made in house; host or cells: insect cells, baculovirus (Bac-to-Bac, Invitrogen)
Test: Aurora A DELFIA Kinase Assay
Format: biochemical
Settings: 250 μM ATP, threshold less than or equal to 1.0 μM

Row | Structure (SMILES) | IC50
1 | CN(C)CCC(=O)c1cccc(Nc2ncc3c(n2)-c2ccc(Cl)cc2C(c2c(F)cccc2F)=NC3)c1 [Compound I-359, 1-(3-{[9-chloro-7-(2,6-difluorophenyl)-5H-pyrimido[5,4-d][2]benzazepin-2-yl]amino}phenyl)-3-(dimethylamino)propan-1-one] | ≤ 1000 nM
2 | NC(=O)c1cccc(Nc2ncc3c(n2)-c2ccc(Cl)cc2C(c2ccccc2Cl)=NC3)c1 [Compound I-64, 3-[9-Chloro-7-(2-chloro-phenyl)-5H-benzo[c]pyrimido[4,5-e]azepin-2-ylamino]-benzamide] | ≤ 1000 nM
3 | CN1CCN(C(=O)c2ccc(Nc3ncc4c(n3)-c3ccc(Cl)cc3C(c3c(F)cccc3F)=NC4)cc2)CC1 [Compound I-184, {4-[9-Chloro-7-(2,6-difluoro-phenyl)-5H-benzo[c]pyrimido[4,5-e]azepin-2-ylamino]-phenyl}-(4-methyl-piperazin-1-yl)-methanone] | ≤ 1000 nM
4 | Cc1ccccc1C1=NCc2cnc(Nc3ccc(C(=O)NCCCN4CCN(C)CC4)cc3)nc2-c2ccc(Cl)cc21 [Compound I-21, 4-(9-Chloro-7-o-tolyl-5H-benzo[c]pyrimido[4,5-e]azepin-2-ylamino)-N-[3-(4-methyl-piperazin-1-yl)-propyl]-benzamide] | ≤ 1000 nM
5 | CC1CN(C(=O)c2csc(Nc3ncc4c(n3)-c3ccc(Cl)cc3C(c3c(F)cccc3F)=NC4)n2)CC(C)N1 (stereo not shown) [Compound I-362, 9-chloro-7-(2,6-difluorophenyl)-N-{4-[(3,5-dimethylpiperazin-1-yl)carbonyl]-1,3-thiazol-2-yl}-5H-pyrimido[5,4-d][2]benzazepin-2-amine] | ≤ 1000 nM
6 | CC1CN(C(=O)c2ccc(Nc3ncc4c(n3)-c3ccc(Cl)cc3C(c3c(F)cccc3F)=NC4)cc2)CC(C)N1 (stereo not shown) [Compound I-175, 9-Chloro-7-(2,6-difluorophenyl)-N-{4-[(3,5-dimethylpiperazin-1-yl)carbonyl]phenyl}-5H-pyrimido[5,4-d][2]benzazepin-2-amine] | ≤ 1000 nM
7 | CN1CCC(N(C)C(=O)c2ccc(Nc3ncc4c(n3)-c3ccc(Cl)cc3C(c3ccccc3F)=NC4)cc2)C1 (stereo not shown) [Compound I-99, 4-[9-Chloro-7-(2-fluoro-phenyl)-5H-benzo[c]pyrimido[4,5-e]azepin-2-ylamino]-N-methyl-N-(1-methyl-pyrrolidin-3-yl)-benzamide] | ≤ 1000 nM
8 | CNC1CCCN(C(=O)c2ccc(Nc3ncc4c(n3)-c3ccc(Cl)cc3C(c3ccccc3OC)=NC4)cc2)C1 (stereo not shown) [Compound I-333, 9-chloro-7-(2-methoxyphenyl)-N-(4-{[3-(methylamino)piperidin-1-yl]carbonyl}phenyl)-5H-pyrimido[5,4-d][2]benzazepin-2-amine] | ≤ 1000 nM
9 | NC1CCCN(C(=O)c2ccc(Nc3ncc4c(n3)-c3ccc(Cl)cc3C(c3c(F)cccc3F)=NC4)cc2)C1 (stereo not shown) [Compound I-221] | ≤ 1000 nM
10 | CN(C)C1CCN(C(=N)NC(=O)c2ccc(Nc3ncc4c(n3)-c3ccc(Cl)cc3C(c3c(F)cccc3F)=NC4)cc2)CC1 [Compound I-223, 4-{[9-chloro-7-(2,6-difluorophenyl)-5H-pyrimido[5,4-d][2]benzazepin-2-yl]amino}-N-[[4-(dimethylamino)piperidin-1-yl](imino)methyl]benzamide] | ≤ 1000 nM
11 | O=C(O)c1ccc(Nc2ncc3c(n2)-c2ccc(Cl)cc2C(c2cccc(F)c2)=NC3)cc1 [Compound I-162, 4-[9-Chloro-7-(3-fluoro-phenyl)-5H-benzo[c]pyrimido[4,5-e]azepin-2-ylamino]-benzoic acid] | ≤ 1000 nM
12 | CNC(=O)c1ccc(Nc2ncc3c(n2)-c2ccc(Cl)cc2C(c2c(F)cccc2NCCO)=NC3)cc1 [Compound I-339, 4-[(9-chloro-7-{2-fluoro-6-[(2-hydroxyethyl)amino]phenyl}-5H-pyrimido[5,4-d][2]benzazepin-2-yl)amino]-N-methylbenzamide] | ≤ 1000 nM
13 | CN1CCN(CCCNC(=O)c2ccc(Nc3ncc4c(n3)-c3ccc(Cl)cc3C(c3ccccc3F)=NC4)cc2)CC1 [Compound I-19, 4-[9-Chloro-7-(2-fluoro-phenyl)-5H-benzo[c]pyrimido[4,5-e]azepin-2-ylamino]-N-[3-(4-methyl-piperazin-1-yl)-propyl]-benzamide] | ≤ 1000 nM
14 | O=C(Cc1ccc(Nc2ncc3c(n2)-c2ccc(Cl)cc2C(c2ccccc2F)=NC3)cc1)NCCN1CCOCC1 [Compound I-120, 2-{4-[9-Chloro-7-(2-fluoro-phenyl)-5H-benzo[c]pyrimido[4,5-e]azepin-2-ylamino]-phenyl}-N-(2-morpholin-4-yl-ethyl)-acetamide] | ≤ 1000 nM
15 | CNC1CCCN(C(=O)c2ccc(Nc3ncc4c(n3)-c3ccc(Cl)cc3C(c3c(F)cccc3Cl)=NC4)cc2)C1 (stereo not shown) [Compound I-326, 9-chloro-7-(2-chloro-6-fluorophenyl)-N-(4-{[3-(methylamino)piperidin-1-yl]carbonyl}phenyl)-5H-pyrimido[5,4-d][2]benzazepin-2-amine] | ≤ 1000 nM
16 | CC1CN(C(=O)c2ccc(Nc3ncc4c(n3)-c3ccc(Cl)cc3C(c3c(F)cccc3F)=NC4)cc2Cl)CCN1 (stereo not shown) [Compound I-216, 9-chloro-N-{3-chloro-4-[(3-methylpiperazin-1-yl)carbonyl]phenyl}-7-(2,6-difluorophenyl)-5H-pyrimido[5,4-d][2]benzazepin-2-amine] | ≤ 1000 nM

Row | Structure (SMILES) | IC50
17 | COc1cccc(F)c1C1=NCc2cnc(Nc3ccc(C(=O)N(C)CCN)cc3)nc2-c2ccc(Cl)cc21 [Compound I-265, N-(2-aminoethyl)-4-{[9-chloro-7-(2-fluoro-6-methoxyphenyl)-5H-pyrimido[5,4-d][2]benzazepin-2-yl]amino}-N-methylbenzamide] | ≤ 1000 nM
18 | COc1cccc(F)c1C1=NCc2cnc(Nc3ccc(C(=O)O)cc3)nc2-c2ccc(Cl)cc21 [Compound I-190, 4-[9-Chloro-7-(2-fluoro-6-methoxy-phenyl)-5H-benzo[c]pyrimido[4,5-e]azepin-2-ylamino]-benzoic acid] | ≤ 1000 nM
19 | CNCCN(C)C(=O)c1ccc(Nc2ncc3c(n2)-c2ccc(Cl)cc2C(c2c(F)cccc2OC)=NC3)cc1 [Compound I-254, 4-{[9-chloro-7-(2-fluoro-6-methoxyphenyl)-5H-pyrimido[5,4-d][2]benzazepin-2-yl]amino}-N-methyl-N-[2-(methylamino)ethyl]benzamide] | ≤ 1000 nM
20 | Fc1cccc(F)c1C1=NCc2cnc(Nc3ccc(Nc4ncccn4)cc3)nc2-c2ccc(Cl)cc21 [Compound I-271, N-[9-chloro-7-(2,6-difluorophenyl)-5H-pyrimido[5,4-d][2]benzazepin-2-yl]-N′-pyrimidin-2-ylbenzene-1,4-diamine] | ≤ 1000 nM
21 | CN(C)CC1CN(C(=O)c2ccc(Nc3ncc4c(n3)-c3ccc(Cl)cc3C(c3ccccc3F)=NC4)cc2)C1 [Compound I-193, {4-[9-Chloro-7-(2-fluoro-phenyl)-5H-benzo[c]pyrimido[4,5-e]azepin-2-ylamino]-phenyl}-(3-dimethylaminomethyl-azetidin-1-yl)-methanone] | ≤ 1000 nM
22 | O=C(NCCN1CCOCC1)c1ccc(Nc2ncc3c(n2)-c2ccc(Cl)cc2C(c2ccccc2Cl)=NC3)cc1O [Compound I-34, 4-[9-Chloro-7-(2-chloro-phenyl)-5H-benzo[c]pyrimido[4,5-e]azepin-2-ylamino]-2-hydroxy-N-(2-morpholin-4-yl-ethyl)-benzamide] | ≤ 1000 nM
23 | NCC#Cc1cccc(Nc2ncc3c(n2)-c2ccc(Cl)cc2C(c2c(F)cccc2F)=NC3)c1 [Compound I-338, N-[3-(3-aminoprop-1-yn-1-yl)phenyl]-9-chloro-7-(2,6-difluorophenyl)-5H-pyrimido[5,4-d][2]benzazepin-2-amine] | ≤ 1000 nM
24 | CNC1CCN(C(=O)c2ccc(Nc3ncc4c(n3)-c3ccc(Cl)cc3C(c3ccccn3)=NC4)cc2)CC1 [Compound I-316, 9-chloro-N-(4-{[4-(methylamino)piperidin-1-yl]carbonyl}phenyl)-7-pyridin-2-yl-5H-pyrimido[5,4-d][2]benzazepin-2-amine] | ≤ 1000 nM
25 | O=C(NCCN1CCOCC1)c1ccc(Nc2ncc3c(n2)-c2ccc(Cl)cc2C(c2ccccc2Cl)=NC3)cc1 [Compound I-30, 4-[9-Chloro-7-(2-chloro-phenyl)-5H-benzo[c]pyrimido[4,5-e]azepin-2-ylamino]-N-(2-morpholin-4-yl-ethyl)-benzamide] | ≤ 1000 nM
26 | COc1ccc(Nc2ncc3c(n2)-c2cc(C)ccc2C(c2ccccc2F)=NC3)cc1OC [Compound I-80, (3,4-Dimethoxy-phenyl)-[7-(2-fluoro-phenyl)-10-methyl-5H-benzo[c]pyrimido[4,5-e]azepin-2-yl]-amine] | ≤ 1000 nM
27 | NC(=O)C1CN(C(=O)c2ccc(Nc3ncc4c(n3)-c3ccc(Cl)cc3C(c3c(F)cccc3F)=NC4)cc2)CCN1 (stereo not shown) [Compound I-317, 4-(4-{[9-chloro-7-(2,6-difluorophenyl)-5H-pyrimido[5,4-d][2]benzazepin-2-yl]amino}benzoyl)piperazine-2-carboxamide] | ≤ 1000 nM
28 | NCCNC(=O)c1ccc(Nc2ncc3c(n2)-c2ccc(Cl)cc2C(c2ccccc2F)=NC3)cc1 [Compound I-142, N-(2-Amino-ethyl)-4-[9-chloro-7-(2-fluoro-phenyl)-5H-benzo[c]pyrimido[4,5-e]azepin-2-ylamino]-benzamide] | ≤ 1000 nM
29 | CC1(C)CN=C(c2ccc(Nc3ncc4c(n3)-c3ccc(Cl)cc3C(c3c(F)cccc3F)=NC4)cc2)N1 [Compound I-270, 9-chloro-7-(2,6-difluorophenyl)-N-[4-(5,5-dimethyl-4,5-dihydro-1H-imidazol-2-yl)phenyl]-5H-pyrimido[5,4-d][2]benzazepin-2-amine] | ≤ 1000 nM
30 | COc1cccc(Nc2ncc3c(n2)-c2ccc(C#CCN4CCCC4)cc2C(c2c(F)cccc2F)=NC3)c1 [Compound I-275, 7-(2,6-difluorophenyl)-N-(3-methoxyphenyl)-9-(3-pyrrolidin-1-ylprop-1-yn-1-yl)-5H-pyrimido[5,4-d][2]benzazepin-2-amine] | ≤ 1000 nM
31 | CN1CCN(C(=O)c2ccc(Nc3ncc4c(n3)-c3ccc(Cl)cc3C(c3ccccc3Cl)=NC4)cc2)CC1 [Compound I-10, {4-[9-Chloro-7-(2-chloro-phenyl)-5H-benzo[c]pyrimido[4,5-e]azepin-2-ylamino]-phenyl}-(4-methyl-piperazin-1-yl)-methanone] | ≤ 1000 nM
